Data taken from PubChem BioAssay AID504749, deposited by NCATS (2011).

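A panel of P. falciparum strains inside erythrocytes is exposed to compounds for three days, then a DNA-binding dye reports the amount of parasite DNA. Each compound was titrated across a series from about 0.000037 to 29 µM. The number is the fitted AC50, the concentration giving a half-maximal change in signal; a lower value means higher potency, whether the curve shows a decrease or an increase. Calls follow the curve class and fit quality: every row here is inconclusive, covering signal-raising curves and weak, poorly fitted, partial or highest-dose-only inhibition curves.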

Values are in µM. Every entry below has the call inconclusive. These entries are mostly ones the record files as inconclusive; other results of the assay are not listed here. Potencies fitted to partial, single-point or poorly fitting curves are rough. Some entries filed as inconclusive have a full curve. The first word of each remark tells which way the curve ran; it can be opposite to the aim of the assay.

Compound | condition | potency (µM) | curve as filed
CC[C@]1(O)C[C@H]2CN(CCc3c([nH]c4ccccc34)[C@@](C(=O)OC)(c3cc4c(cc3OC)N(C=O)[C@H]3[C@@](O)(C(=O)OC)[C@H](OC(C)=O)[C@]5(CC)C=CCN6CC[C@]43[C@@H]65)C2)C1 | CP247 | 3.162 | inhibitor, full curve, poor fit
CC[C@]1(O)C[C@H]2CN(CCc3c([nH]c4ccccc34)[C@@](C(=O)OC)(c3cc4c(cc3OC)N(C=O)[C@H]3[C@@](O)(C(=O)OC)[C@H](OC(C)=O)[C@]5(CC)C=CCN6CC[C@]43[C@@H]65)C2)C1 | 3D7 | 0.0355 | inhibitor, full curve, poor fit
CC[C@]1(O)C[C@H]2CN(CCc3c([nH]c4ccccc34)[C@@](C(=O)OC)(c3cc4c(cc3OC)N(C=O)[C@H]3[C@@](O)(C(=O)OC)[C@H](OC(C)=O)[C@]5(CC)C=CCN6CC[C@]43[C@@H]65)C2)C1 | CP215 | 3.381 | inhibitor, full curve, poor fit
CC[C@]1(O)C[C@H]2CN(CCc3c([nH]c4ccccc34)[C@@](C(=O)OC)(c3cc4c(cc3OC)N(C=O)[C@H]3[C@@](O)(C(=O)OC)[C@H](OC(C)=O)[C@]5(CC)C=CCN6CC[C@]43[C@@H]65)C2)C1 | PAD | 1.778 | inhibitor, full curve, poor fit
CC[C@]1(O)C[C@H]2CN(CCc3c([nH]c4ccccc34)[C@@](C(=O)OC)(c3cc4c(cc3OC)N(C=O)[C@H]3[C@@](O)(C(=O)OC)[C@H](OC(C)=O)[C@]5(CC)C=CCN6CC[C@]43[C@@H]65)C2)C1 | ECU | 1.778 | inhibitor, full curve, poor fit
CC[C@]1(O)C[C@H]2CN(CCc3c([nH]c4ccccc34)[C@@](C(=O)OC)(c3cc4c(cc3OC)N(C=O)[C@H]3[C@@](O)(C(=O)OC)[C@H](OC(C)=O)[C@]5(CC)C=CCN6CC[C@]43[C@@H]65)C2)C1 | GB4 | 3.013 | inhibitor, full curve, poor fit
CC[C@]1(O)C[C@H]2CN(CCc3c([nH]c4ccccc34)[C@@](C(=O)OC)(c3cc4c(cc3OC)N(C=O)[C@H]3[C@@](O)(C(=O)OC)[C@H](OC(C)=O)[C@]5(CC)C=CCN6CC[C@]43[C@@H]65)C2)C1 | CP201 | 2.393 | inhibitor, partial curve, poor fit
CC[C@]1(O)C[C@H]2CN(CCc3c([nH]c4ccccc34)[C@@](C(=O)OC)(c3cc4c(cc3OC)N(C=O)[C@H]3[C@@](O)(C(=O)OC)[C@H](OC(C)=O)[C@]5(CC)C=CCN6CC[C@]43[C@@H]65)C2)C1 | CP266 | 4.776 | activator
CC[C@]1(O)C[C@H]2CN(CCc3c([nH]c4ccccc34)[C@@](C(=O)OC)(c3cc4c(cc3OC)N(C=O)[C@H]3[C@@](O)(C(=O)OC)[C@H](OC(C)=O)[C@]5(CC)C=CCN6CC[C@]43[C@@H]65)C2)C1 | CP268 | 3.381 | inhibitor, full curve
CC[C@]1(O)C[C@H]2CN(CCc3c([nH]c4ccccc34)[C@@](C(=O)OC)(c3cc4c(cc3OC)N(C=O)[C@H]3[C@@](O)(C(=O)OC)[C@H](OC(C)=O)[C@]5(CC)C=CCN6CC[C@]43[C@@H]65)C2)C1 | CP325 | 3.013 | activator
CC[C@]1(O)C[C@H]2CN(CCc3c([nH]c4ccccc34)[C@@](C(=O)OC)(c3cc4c(cc3OC)N(C=O)[C@H]3[C@@](O)(C(=O)OC)[C@H](OC(C)=O)[C@]5(CC)C=CCN6CC[C@]43[C@@H]65)C2)C1 | DIV14 | 1.51 | inhibitor, full curve
CC[C@]1(O)C[C@H]2CN(CCc3c([nH]c4ccccc34)[C@@](C(=O)OC)(c3cc4c(cc3OC)N(C=O)[C@H]3[C@@](O)(C(=O)OC)[C@H](OC(C)=O)[C@]5(CC)C=CCN6CC[C@]43[C@@H]65)C2)C1 | CP265 | 0.0009 | inhibitor, full curve, poor fit
CC[C@]1(O)C[C@H]2CN(CCc3c([nH]c4ccccc34)[C@@](C(=O)OC)(c3cc4c(cc3OC)N(C=O)[C@H]3[C@@](O)(C(=O)OC)[C@H](OC(C)=O)[C@]5(CC)C=CCN6CC[C@]43[C@@H]65)C2)C1 | TAB165 | 1.778 | inhibitor, full curve
CC[C@]1(O)C[C@H]2CN(CCc3c([nH]c4ccccc34)[C@@](C(=O)OC)(c3cc4c(cc3OC)N(C=O)[C@H]3[C@@](O)(C(=O)OC)[C@H](OC(C)=O)[C@]5(CC)C=CCN6CC[C@]43[C@@H]65)C2)C1 | ATS189 | 2.512 | inhibitor, full curve
Oc1cc(Cl)c(Cl)cc1Cl | ICS | 11.22 | inhibitor, single point
Oc1cc(Cl)c(Cl)cc1Cl | DIV14 | 13.46 | inhibitor, single point
Oc1cc(Cl)c(Cl)cc1Cl | CP203 | 21.33 | inhibitor, partial curve, poor fit
Oc1cc(Cl)c(Cl)cc1Cl | GB4 | 19.01 | inhibitor, partial curve, poor fit
Oc1cc(Cl)c(Cl)cc1Cl | DIV17 | 19.01 | inhibitor, single point
CSCCC(N)C(=O)O (stereo not given) | CP268 | 21.33 | inhibitor, single point
CSCCC(N)C(=O)O (stereo not given) | CP315 | 19.01 | inhibitor, single point
CSCCC(N)C(=O)O (stereo not given) | GB4 | 19.01 | inhibitor, single point

2 of the entries, repeated:

Compound	condition	potency (µM)	curve as filed
CC[C@]1(O)C[C@H]2CN(CCc3c([nH]c4ccccc34)[C@@](C(=O)OC)(c3cc4c(cc3OC)N(C=O)[C@H]3[C@@](O)(C(=O)OC)[C@H](OC(C)=O)[C@]5(CC)C=CCN6CC[C@]43[C@@H]65)C2)C1	CP265	0.0009	inhibitor, full curve, poor fit
CC[C@]1(O)C[C@H]2CN(CCc3c([nH]c4ccccc34)[C@@](C(=O)OC)(c3cc4c(cc3OC)N(C=O)[C@H]3[C@@](O)(C(=O)OC)[C@H](OC(C)=O)[C@]5(CC)C=CCN6CC[C@]43[C@@H]65)C2)C1	CP325	3.013	activator